Data taken from patent publication US20080045469A1.
No constants are given. Whether binding was seen depends on the method and setting. Some binding calls cover weakened binding; strength is not graded here.

Columns and labels:
[1] = target: T1, mouse VEGF (endogenous, produced by LLC cells) (mouse) (UniProt Q00731); test: discussion of the ELISA results in transduced LLC cells
T1 sequence (looked up): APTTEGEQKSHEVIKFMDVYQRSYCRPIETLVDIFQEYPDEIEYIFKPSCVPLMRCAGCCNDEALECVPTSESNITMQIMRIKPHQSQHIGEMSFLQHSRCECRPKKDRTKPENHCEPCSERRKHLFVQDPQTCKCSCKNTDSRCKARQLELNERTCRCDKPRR

[2] = target: T1, mouse VEGF (endogenous, produced by LLC cells) (mouse); test: sandwich ELISA of cell lysates and conditioned media of hPLGF-1-KDEL-LLC cells
[3] = target: T1, mouse VEGF (endogenous, produced by LLC cells) (mouse); test: inferred from ELISA, chemotaxis and cell shape assays of hPLGF-1-LLC conditioned medium
[4] = target: T1, mouse VEGF (endogenous, produced by LLC cells) (mouse); test: sandwich ELISA, anti-mVEGF capture and anti-mPLGF-1 detection

B1: human PLGF-1 with C-terminal KDEL ER-retention signal (ligand)
chain: LPAVPPQQWALSAGNGSSEVEVVPFQEVWGRSYCRALERLVDVVSEYPSEVEHMFSPSCVSLLRCTGCCGDENLHCVPVETANVTMQLLKIRSGDRPSYVELTFSQHVRCECRPLREKMKPERCGDAVPRRKDEL
binding [1]: binds | binding [2]: binds

B2: human PLGF-1 (PLGF-1 129) expressed in transduced LLC cells (ligand)
chain: LPAVPPQQWALSAGNGSSEVEVVPFQEVWGRSYCRALERLVDVVSEYPSEVEHMFSPSCVSLLRCTGCCGDENLHCVPVETANVTMQLLKIRSGDRPSYVELTFSQHVRCECRPLREKMKPERCGDAVPRR
binding [3]: binds

B3: mouse PLGF-1 (endogenous, produced by LLC cells) (ligand, UniProt P49764 19-158, looked up)
chain: VHSQGALSAGNNSTEVEVVPFNEVWGRSYCRPMEKLVYILDEYPDEVSHIFSPSCVLLSRCSGCCGDEGLHCVPIKTANITMQILKIPPNRDPHFYVEMTFSQDVLCECRPILETTKAERRKTKGKRKRSRNSQTEEPHP
binding [4]: binds
